According to the supplement of paper PMC5949888:
± gives the standard deviation of the averaged measurements. Most values lie at the floor of the assay. Slopes are relative: functional sequences can read slightly below zero.

tested on: Saccharomyces cerevisiae PS128 hsf1 delta, HSF1(1-493) fusion; experiment: growth estimate (transactivation domain function in HSF1 fusion, heat-shock survival) (a.u. (slope of normalised read count over time)); higher = stronger growth at 37°C, i.e. more transactivation activity; settings: library: random library

Substance | growth estimate
RHRAKRGVRWDFGSDLCWST | -0.23
TACVHDPRKDKPEYPLSNLA | < -0.25
SGRPGG | < -0.25
VGNQLGI | < -0.25
SSRRKFI | < -0.25
DLLMARKFYLLEVSGIVTSV | 0.161
GTPASCMANTGFLEIIRTTD | < -0.25
RKSYELLHFCRECSLSRLQG | < -0.25
EGTEIVVTVTMLATDFGLHR | < -0.25
CDVPTISERTRLQSRHHVYV | < -0.25
GGCACLIWCTEPR | -0.245
TMPPFGHLSLLKSWLKILSP | < -0.25
HKS | < -0.25
TITVNR | < -0.25
VSTCTSPLPK | < -0.25
GRLPQTGDRAQHVLAPRSAT | < -0.25
VLPTLRGCVTLWYNSPTSAA | < -0.25
LPTSERSGLWDQAVEALVPC | < -0.25
SNVGRRQQAILVELCPGFES | < -0.25
SETPSCASRAGK | -0.241
AVRNVFNVRAVGTPARQCPK | < -0.25
GPDANEGSPKLPDQVSWTVS | < -0.25
TCNRSVRNLLGVKS | < -0.25

Substance | growth estimate
VHLHMAFAR | < -0.25
LGRRVVQIVLL | < -0.25
IIATSGTSGYDRRVIGGRSG | < -0.25
KRIRSSIWHCCVDFLWYNKP | < -0.25
YCRFGRGEIDLLFFDSLHGS | -0.194
SSAGRRFLRWKGRHDRFGVK | < -0.25
MRVETSAYPYDARHNQAVAL | -0.25
PRTSRTHPQ | < -0.25
SVFIREDKGLRERYEGRGST | < -0.25
IRR | -0.2453 ± 0.00071
DSLKSE | < -0.25
PTAHRFGPAVGSHATVHSVV | < -0.25
WGFLWCCESGRAGAIVDHGC | < -0.25
WCK | < -0.25
ESQDLSNNFSSHWSPPRRKA | < -0.25
FGRNLVGATSHQ | < -0.25
FGGLHMRTCFRNFFLPFSVG | < -0.25
RAIVPL | < -0.25
LRALSTRQPATVR | -0.231
LHLIVSRGLGPRPSIQDRVS | < -0.25
GTTERLDISTRPCNGTNLTY | < -0.25
FLKGCLPFVHTRGRIRISAS | < -0.25
HGTRKYSALRTCKEEGRAPS | < -0.25

Substance | growth estimate
GKLVPLINSVMLWTHRQNPG | < -0.25
GVMSHSESAEVASPQRRAKR | < -0.25
AGRPLITRQNFLNN | -0.243
LREPRGGQVAGSTRGEKPNV | < -0.25
PWLHVQTAV | < -0.25
TAYDARFGWSFLAIQGTTAF | < -0.25
RRTKHFGSIRTGQKVHIANS | < -0.25
GDLGMPKAYRLGSSAME | < -0.25
PLGQLLLHYWDAD | -0.249
HRLGGHAVKVGPPSRVGKFL | < -0.25
VSTFKQ | < -0.25
SQRRISRSPSGTGLREERGP | < -0.25
GCVGQIFGSPCGN | < -0.25
PEGVYDSTPR | < -0.25
VSCWPRGSQFRTRNSKAAMA | < -0.25
SRGDILYRTSRTSRHPRSYP | < -0.25
GEAIRLPTQRFSISIEMRYS | < -0.25
SGRAGGGWWRASPAAKPLRL | < -0.25
IQSAMCAKCVLYLHGQHGVS | < -0.25
WVRRICGVRGNSKWISRHSA | < -0.25
FRVVRYLYNTATNERHPQQP | < -0.25
DVGQVVVHV | < -0.25
GPALLRTIVCEL | < -0.25

Substance | growth estimate
RYSYEPEQPVEREGGSPCTI | < -0.25
RRSTVRRFVT | < -0.25
QSVC | < -0.25
KRKGRCRYRGVTKSRVFHVG | < -0.25
RRDPYCADTDMLDTLQRAGS | < -0.25
GAISY | < -0.25
MGGRCNSAFVNSKMIIAADV | < -0.25
RLE | < -0.25
AMVRAEPRRPIRGRFPQVWS | < -0.25
DQRLS | < -0.25
LKRQGFGV | < -0.25
IGPTERTDSSQRKARSP | < -0.25
ALPRGVARTCLSTPADAAQQ | < -0.25
ICMNVAATAIGKGNTR | < -0.25
VRVYGGRREL | < -0.25
RWRYQHGL | < -0.25
TASWHRVWNDVIVHSTREVQ | < -0.25
GHDGFSRSTRFNIRA | < -0.25
SSMQAPTSLSQSSE | < -0.25
PSDLCRNVVS | < -0.25
QWES | < -0.25
PNEERYRVFMFRWWRAKRRR | < -0.25
LCNLIRHCVSWFKSCLTSRL | < -0.25

Individual results from above.
For growth estimate, RYSYEPEQPVEREGGSPCTI has < -0.25
For growth estimate, MGGRCNSAFVNSKMIIAADV has < -0.25
For growth estimate, ALPRGVARTCLSTPADAAQQ has < -0.25
For growth estimate, LKRQGFGV has < -0.25
For growth estimate, AMVRAEPRRPIRGRFPQVWS has < -0.25

Additional records

Substance | growth estimate
WVYLRRPSIHKV | < -0.25
CENQDACARSQWGSADNEPG | < -0.25
PTKQGVWCE | < -0.25
GQA | < -0.25
NMRSHRARCKV | < -0.25
NILICCLNL | < -0.25
SASATYSKRSD | < -0.25
GLDER | < -0.25
MVHGILSVSGAL | < -0.25
SSP | -0.192
RSSSKTGRDYKLYSHARKSK | < -0.25
SVHPHRCAKRCITRESHPCR | < -0.25
TTPHWLRLIVRA | < -0.25
DKGAIYRDRLTLDWKQCMRC | < -0.25
GLYI | < -0.25
VGRSSKREGRLK | < -0.25
RVNIEVRLCGQAARYGRYQR | < -0.25
TGGRVMVIPGTEIRSFRVVP | < -0.25
VCHEA | < -0.25
RGSPEQPLL | < -0.25
LALLERLERMVNAIGTIGTD | -0.229
PITNAGTLSWKSRNIARVGR | < -0.25
CRSSICILLHIDTHLAPLIL | < -0.25

Substance | growth estimate
DSTVKAGMGSHAAAYTNCIP | < -0.25
PTMVFLVQPSVDYSRSTRSC | < -0.25
DARFFLFSGLVVPCKC | < -0.25
LLELKATSNTKSIYVRRGDL | < -0.25
VATHMCPERPAPDVHVCVRR | < -0.25
MQITQNAEEGGVRYMSSGSA | < -0.25
AFEGLDAHF | < -0.25
GGDAERHN | < -0.25
ITRSVHSPDIRFSLFHTI | < -0.25
MGLKRARWFTPLIRWPRYTP | < -0.25
IGHLQPISARARSGLPAVRR | < -0.25
EGQ | < -0.25
ADK | < -0.25
PAIDFQL | < -0.25
GEPAR | < -0.25
RTNKLSCLFGTASVGGYNGA | < -0.25
TRELSV | < -0.25
SGDCAHRTETHFCMDVLGGY | < -0.25
HNCPVQEYPACRRAEITLRG | < -0.25
ADLCPGRFSSSLALFSASRS | < -0.25
HLRPPIQDGGI | < -0.25
YNWFSTVNQGASLTMRAEWA | < -0.25
RLPAACKSSSTISGVHSI | < -0.25

Substance | growth estimate
SSLSCFGHRAN | < -0.25
AFMSPRVLRPSA | < -0.25
TSPDQVHSPMRVV | < -0.25
FVHSYL | < -0.25
SSFSE | -0.25
YILP | < -0.25
IPTCPHYSTRTADRREFVKK | < -0.25
AGLSRPFECGDLGMVRIVPI | < -0.25
PTVLSSSALCAISTNVWFEF | < -0.25
QGIGPRET | < -0.25
IPFRQVRHTGPTKA | < -0.25
NAAWRPGKHDGILSGPVRPL | < -0.25
RAL | < -0.25
VLSANPLKAMGSENRKGRGP | < -0.25
DCVVCTAC | < -0.25
RFIVGAARLWVTSFLN | < -0.25
YGSIKAF | < -0.25
DSCGWNLGISSRALRHEWTP | < -0.25
WLHRVRTQIF | < -0.25
FRGSAFLSEGPDPAPCSTGP | < -0.25
